Test results: the supplement of paper PMC9135407
Where “and” joins values, the source holds several entries; their conditions need not be identical. Equal values may be shown once. Where a name gives a salt, the structure may show the parent alone. ± gives the standard deviation of the averaged measurements. Some of the results follow. Plates or batches differ in their baseline, so values are only roughly comparable.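 Primary human stellate myofibroblasts activated in culture; inactivation shown by regained lipid droplets. Readout: fraction of Hoechst-counted cells exceeding a per-plate Bodipy threshold, duplicate wells, each plate with DMSO negative and nortriptyline positive controls. Hits: control-normalized score beyond the plate's top-tenth-percentile nortriptyline wells, or among its three best wells. Final well concentrations unstated.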

System: primary human hepatic stellate cells (donor 1)
Experiment: percent Bodipy-positive cells; higher = more lipid droplet accumulation
Conditions: 48 h
[1] = library stock concentration: 10 mM
[2] = library stock concentration: 3.33 mM
[3] = library stock concentration: 2 mM
[4] = library stock concentration: 1 mM
[5] = library stock concentration: 6.4 mM

In the case of `C[C@H]1[C@@H](O)O[C@@H]2O[C@@]3(C)CC[C@H]4[C@H](C)CC[C@@H]1[C@@]24OO3`, the “percent Bodipy-positive cells” value [1] is reported as 35 ± 5.8%.
With `C[C@H]1[C@@H](O)O[C@@H]2O[C@@]3(C)CC[C@H]4[C@H](C)CC[C@@H]1[C@@]24OO3` [Dihydroartemisinin (DHA)] the “percent Bodipy-positive cells” value [2] was 8.72 ± 0.15% and the “percent Bodipy-positive cells” value [1] was 7.5 ± 1.8%.
In the case of `Cc1cc(C)cc(C(=O)N(C)[C@H](Cc2ccc(-c3ccccc3)cc2)C(=O)N[C@@H](Cc2c[nH]c3ccccc23)C(=O)O)c1`, the “percent Bodipy-positive cells” value [1] is reported as 11.8 ± 0.21%.
`O=c1[nH]c2ccccc2c2ccccc12` [6(5H)-Phenanthridinone] was tested, and the “percent Bodipy-positive cells” value [1] was 14.7 ± 5.4% and the “percent Bodipy-positive cells” value (library stock concentration: 25.6 mM) was 21.6 ± 2.1%.
With `C=CC(=O)Nc1cc(Nc2nccc(-c3cn(C)c4ccccc34)n2)c(OC)cc1N(C)CCN(C)C` the “percent Bodipy-positive cells” value [3] was 68.1 ± 12%.
For `CCCCC[C@@](C)(O)/C=C/[C@@H]1[C@@H](C/C=C\CCCC(=O)O)[C@@H](O)C[C@H]1O` [15(R)-15-methyl Prostaglandin F2.alpha.], the “percent Bodipy-positive cells” value [4] was 15.7 ± 0.89%.
With `C#CCN(C)Cc1ccccc1` [Pargyline hydrochloride] the “percent Bodipy-positive cells” value was 28.3 ± 4.9% and the “percent Bodipy-positive cells” value [1] was 13.3 ± 4.3%.
In the case of `C#CCN(C)Cc1ccccc1` [Pargyline (hydrochloride)], the “percent Bodipy-positive cells” value [4] is reported as 6.47 ± 1.4%.
For `CCCCCC(=O)/C=C/[C@@H]1[C@@H](C/C=C\CCCC(=O)O)[C@@H](O)C[C@H]1O` [15-keto Prostaglandin F2.alpha.], the “percent Bodipy-positive cells” value [4] was 19.4 ± 3%.
For `CN(C)c1ccc(C(=O)NCCCCCCC(=O)NO)cc1`, the “percent Bodipy-positive cells” value [2] was 55.4 ± 5.5% and the “percent Bodipy-positive cells” value [1] was 71.4 ± 1.8%.
With `OC(CCN1CCCCC1)(c1ccccc1)C1CC2C=CC1C2` (centres undefined) [Biperiden HCl] the “percent Bodipy-positive cells” value [2] was 20 ± 3.1% and the “percent Bodipy-positive cells” value [1] was 47.15 ± 0.13%.
For `OC(CCN1CCCCC1)(c1ccccc1)C1CC2C=CC1C2` (centres undefined) [Biperiden hydrochloride], the “percent Bodipy-positive cells” value was 65.4 ± 3.6% and the “percent Bodipy-positive cells” value [1] was 82.3 ± 2.3%.
`OC(CCN1CCCCC1)(c1ccccc1)C1CC2C=CC1C2` (centres undefined) [Biperiden] was tested, and the “percent Bodipy-positive cells” value [5] was 55.2 ± 5.5%.
`Cc1ncc([N+](=O)[O-])n1CCO` [Metronidazole] was tested, and the “percent Bodipy-positive cells” value was 29.6 ± 7.3%, the “percent Bodipy-positive cells” value [2] was 6.13 ± 3.8% and the “percent Bodipy-positive cells” value [1] was 15.1% and 13.2%.
For `Cc1ncc([N+](=O)[O-])n1CCO`, the “percent Bodipy-positive cells” value [1] was 7.14 ± 0.088%.
For `CCN(CC)CC#CCOC(=O)C(O)(c1ccccc1)C1CCCCC1` (centres undefined) [Oxybutynin chloride], the “percent Bodipy-positive cells” value was 56.9 ± 6.2%, the “percent Bodipy-positive cells” value [2] was 34.6 ± 11% and the “percent Bodipy-positive cells” value (library stock concentration: 5.1 mM) was 44.6 ± 8.5%. The “percent Bodipy-positive cells” value [1] was 62.1 ± 5.3%.
With `CC(=O)O/N=C1\C(=O)N(Cc2cc(Cl)ccc2Cl)c2ccc(Cl)cc21` the “percent Bodipy-positive cells” value [2] was 22.4 ± 0.53% and the “percent Bodipy-positive cells” value [1] was 38.8 ± 14%.
`N=C(N)c1ccccc1` [Benzamidine hydrochloride] was tested, and the “percent Bodipy-positive cells” value [1] was 41.7 ± 2%.
For `O=C(NCCNCC(O)COc1ccc(O)cc1)N1CCOCC1` (centres undefined) [Xamoterol hemifumarate], the “percent Bodipy-positive cells” value was 8.31 ± 0.53%, the “percent Bodipy-positive cells” value (library stock concentration: 5.9 mM) was 9.76 ± 3.9% and the “percent Bodipy-positive cells” value [1] was 8.87 ± 1.5%.
With `CCN(Cc1ccncc1)C(=O)C(CO)c1ccccc1` (centres undefined) [Tropicamide] the “percent Bodipy-positive cells” value was 31.3 ± 4.9%, the “percent Bodipy-positive cells” value [2] was 15.8 ± 0.42% and the “percent Bodipy-positive cells” value (library stock concentration: 7 mM) was 9.33% and 14.7%.
`CC(C)N1CCN(c2ccc(OCC3COC(Cn4cncn4)(c4ccc(Cl)cc4Cl)O3)cc2)CC1` (centres undefined) [Terconazole] was tested, and the “percent Bodipy-positive cells” value was 40.9 ± 1.4%.
In the case of `Clc1ccc2c(c1)N=C(N1CCNCC1)c1ccccc1N2` [N-Desmethylclozapine], the “percent Bodipy-positive cells” value [1] is reported as 97.2 ± 1.6%.
`CN1C2CCCC1CC(NC(=O)c1nn(C)c3ccccc13)C2` (centres undefined) was tested, and the “percent Bodipy-positive cells” value [1] was 15.4 ± 9.4%.
With `CN1C2CCCC1CC(NC(=O)c1nn(C)c3ccccc13)C2` (centres undefined) [Granisetron hydrochloride] the “percent Bodipy-positive cells” value [1] was 36.2 ± 2.3%.
In the case of `CN1C2CCCC1CC(NC(=O)c1nn(C)c3ccccc13)C2` (centres undefined) [Granisetron], the “percent Bodipy-positive cells” value [5] is reported as 8.82 ± 3.7%.
For `COc1cc2c(Oc3ccc4[nH]c(C)cc4c3F)ncnc2cc1OCCCN1CCCC1` [Cediranib], the “percent Bodipy-positive cells” value [3] was 79.1 ± 1.4%.
In the case of `Cc1ccc(C(=O)c2cc(O)c(O)c([N+](=O)[O-])c2)cc1` [Tolcapone], the “percent Bodipy-positive cells” value [2] is reported as 6.88 ± 2.4%, the “percent Bodipy-positive cells” value (library stock concentration: 7.3 mM) is reported as 11.6 ± 2.4% and the “percent Bodipy-positive cells” value [1] is reported as 44.4 ± 2.7%.
With `O=Nc1c(-c2c(O)[nH]c3ccccc23)[nH]c2ccccc12` [Indirubin-3'-monoxime] the “percent Bodipy-positive cells” value [2] was 3.82 ± 1% and the “percent Bodipy-positive cells” value (library stock concentration: 18 mM) was 2.87 ± 1%.
In the case of `O=Nc1c(-c2c(O)[nH]c3ccccc23)[nH]c2ccccc12` [Indirubin-3'-oxime], the “percent Bodipy-positive cells” value [1] is reported as 8% and 4.22%.
With `NC[C@H]1O[C@H](O[C@H]2[C@H](O[C@@H]3O[C@H](CO)[C@@H](O)[C@H]3O)[C@@H](O)[C@H](N)C[C@@H]2N)[C@H](N)[C@@H](O)[C@@H]1O` [Ribostamycin sulfate] the “percent Bodipy-positive cells” value [1] was 28.3 ± 8.4%.
`NC[C@H]1O[C@H](O[C@H]2[C@H](O[C@@H]3O[C@H](CO)[C@@H](O)[C@H]3O)[C@@H](O)[C@H](N)C[C@@H]2N)[C@H](N)[C@@H](O)[C@@H]1O` [Ribostamycin sulfate salt] was tested, and the “percent Bodipy-positive cells” value was 7.69 ± 1.6%.
For `CCCCC/C=C\C[C@@H](O)/C=C/c1cccc(C[C@@H](O)CCCCO)n1`, the “percent Bodipy-positive cells” value (library stock concentration: 100 uM) was 9.27 ± 7%.
In the case of `O=C([O-])c1ccccc1O.[Na+]` [Sodium salicylate], the “percent Bodipy-positive cells” value [2] is reported as 10.6 ± 4.4% and the “percent Bodipy-positive cells” value [1] is reported as 31.8% and 13.5%.
With `COc1ccc2[nH]cc(CCNC(C)=O)c2c1` [Melatonin] the “percent Bodipy-positive cells” value was 31.9 ± 11%, the “percent Bodipy-positive cells” value [2] was 8.98 ± 1.4% and the “percent Bodipy-positive cells” value (library stock concentration: 8.6 mM) was 8.96 ± 5.7%.
For `C=CC[C@@H]1/C=C(\C)C[C@H](C)C[C@H](OC)[C@H]2O[C@@](O)(C(=O)C(=O)N3CCCC[C@H]3C(=O)O[C@H](/C(C)=C/[C@@H]3CC[C@@H](O)[C@H](OC)C3)[C@H](C)[C@@H](O)CC1=O)[C@H](C)C[C@@H]2OC`, the “percent Bodipy-positive cells” value [4] was 5.57 ± 0.13%, the “percent Bodipy-positive cells” value (library stock concentration: 6.2 mM) was 19.8 ± 6.7% and the “percent Bodipy-positive cells” value [1] was 6.15 ± 2.1%.
